Measurements reported in PubChem BioAssay AID1053208 (Peter MacCallum Cancer Centre, 2014)

Aim: 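Genes whose silencing cuts survival of bone tumour cells only with doxorubicin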 (primary screen)
Cell system: mouse osteosarcoma cells, early-passage culture from an engineered mouse model of fibroblastic bone tumour
Reagent: siRNA pool against mouse genes, 40 nM
Time to read-out: about 120 h (48 h before drug, then 72 h with drug)
Challenge: doxorubicin 100 nM for 72 h, roughly 30-40% inhibitory dose
Measurement: 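Luminescent ATP signal taken as viability with or without 100 nM doxorubicin for 72 h; mean of two wells set against non-targeting siRNA and turned into robust z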
Reading the numbers: viability z-score with doxorubicin: higher = more viable cells under doxorubicin; viability z-score without drug: higher = more viable cells with knock-down alone
Hit rule: 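a pool counts as active when its viability z-score with doxorubicin is -2 or below and its z-score without drug lies between -2 and 2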
The deposit covers about 17,000 reagents; this is an unselected part. Of all reagents, 788 (4.7%) were called active. 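Calls rest on z-score classes alone; an extra cut-off of viability at most 70% of control was not applied to them.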 Further read-outs or replicates are left out here.

The first 3 entries as a preview:
{"gene": "Mgat5", "combined z-score class": "low cell count without drug only", "viability z-score with doxorubicin": -0.9, "viability z-score without drug": -2.36, "outcome": "inactive"}
{"gene": "Bend5", "combined z-score class": "no change with or without drug", "viability z-score with doxorubicin": 0, "viability z-score without drug": 1.35, "outcome": "inactive"}
{"gene": "Rbpj", "combined z-score class": "no change with or without drug", "viability z-score with doxorubicin": -1.12, "viability z-score without drug": 0.34, "outcome": "inactive"}

The list itself, from the first entry:
{"gene": "Mgat5", "combined z-score class": "low cell count without drug only", "viability z-score with doxorubicin": -0.9, "viability z-score without drug": -2.36, "outcome": "inactive"}
{"gene": "Bend5", "combined z-score class": "no change with or without drug", "viability z-score with doxorubicin": 0, "viability z-score without drug": 1.35, "outcome": "inactive"}
{"gene": "Rbpj", "combined z-score class": "no change with or without drug", "viability z-score with doxorubicin": -1.12, "viability z-score without drug": 0.34, "outcome": "inactive"}
{"gene": "Gorab", "combined z-score class": "no change with or without drug", "viability z-score with doxorubicin": 0.79, "viability z-score without drug": 0.34, "outcome": "inactive"}
{"gene": "Msl3", "combined z-score class": "no change with or without drug", "viability z-score with doxorubicin": -0.22, "viability z-score without drug": -0.51, "outcome": "inactive"}
{"gene": "Cabcoco1", "combined z-score class": "no change with or without drug", "viability z-score with doxorubicin": 1.46, "viability z-score without drug": -0.51, "outcome": "inactive"}
{"gene": "Sec24c", "combined z-score class": "no change with or without drug", "viability z-score with doxorubicin": 0.9, "viability z-score without drug": 0.17, "outcome": "inactive"}
{"gene": "Chchd4", "combined z-score class": "no change with or without drug", "viability z-score with doxorubicin": -0.9, "viability z-score without drug": 1.18, "outcome": "inactive"}
{"gene": "Plekhg4", "combined z-score class": "no change with or without drug", "viability z-score with doxorubicin": -0.22, "viability z-score without drug": 1.69, "outcome": "inactive"}
{"gene": "Zdhhc7", "combined z-score class": "no change with or without drug", "viability z-score with doxorubicin": 0.11, "viability z-score without drug": -0.51, "outcome": "inactive"}
{"gene": "Caap1", "combined z-score class": "no change with or without drug", "viability z-score with doxorubicin": 0.67, "viability z-score without drug": 0.67, "outcome": "inactive"}
{"gene": "Letm2", "combined z-score class": "no change with or without drug", "viability z-score with doxorubicin": 0, "viability z-score without drug": -0.51, "outcome": "inactive"}
{"gene": "Prh1", "combined z-score class": "no change with or without drug", "viability z-score with doxorubicin": 0.22, "viability z-score without drug": -0.17, "outcome": "inactive"}
{"gene": "Ptprcap", "combined z-score class": "no change with or without drug", "viability z-score with doxorubicin": 0.9, "viability z-score without drug": -0.34, "outcome": "inactive"}
{"gene": "Naa80", "combined z-score class": "no change with or without drug", "viability z-score with doxorubicin": 0.67, "viability z-score without drug": -0.34, "outcome": "inactive"}
{"gene": "Slc24a2", "combined z-score class": "low cell count with doxorubicin only", "viability z-score with doxorubicin": -2.47, "viability z-score without drug": -0.17, "outcome": "active"}
{"gene": "Xiap", "combined z-score class": "no change with or without drug", "viability z-score with doxorubicin": -1.12, "viability z-score without drug": -0.17, "outcome": "inactive"}
{"gene": "Degs1", "combined z-score class": "no change with or without drug", "viability z-score with doxorubicin": 1.01, "viability z-score without drug": -1.18, "outcome": "inactive"}
{"gene": "Crebl2", "combined z-score class": "high cell count without drug only", "viability z-score with doxorubicin": 0.34, "viability z-score without drug": 2.19, "outcome": "inactive"}
{"gene": "Ttk", "combined z-score class": "low cell count with and without drug", "viability z-score with doxorubicin": -4.72, "viability z-score without drug": -2.53, "outcome": "inactive"}
{"gene": "Cldn14", "combined z-score class": "no change with or without drug", "viability z-score with doxorubicin": 0.34, "viability z-score without drug": -0.51, "outcome": "inactive"}
{"gene": "Pdpk1", "combined z-score class": "no change with or without drug", "viability z-score with doxorubicin": 1.12, "viability z-score without drug": -0.51, "outcome": "inactive"}
{"gene": "Popdc2", "combined z-score class": "no change with or without drug", "viability z-score with doxorubicin": 0, "viability z-score without drug": 0, "outcome": "inactive"}
{"gene": "Cd226", "combined z-score class": "no change with or without drug", "viability z-score with doxorubicin": 0.34, "viability z-score without drug": 1.52, "outcome": "inactive"}
{"gene": "Meox2", "combined z-score class": "no change with or without drug", "viability z-score with doxorubicin": -0.22, "viability z-score without drug": 0, "outcome": "inactive"}
{"gene": "Odr4", "combined z-score class": "no change with or without drug", "viability z-score with doxorubicin": 1.35, "viability z-score without drug": 1.01, "outcome": "inactive"}
{"gene": "C4a", "combined z-score class": "no change with or without drug", "viability z-score with doxorubicin": 1.46, "viability z-score without drug": 0.34, "outcome": "inactive"}
{"gene": "Cpsf3", "combined z-score class": "no change with or without drug", "viability z-score with doxorubicin": 0, "viability z-score without drug": -0.84, "outcome": "inactive"}
